Results published in the supplement of paper PMC10849652.
This is one part of the list.

Amino acid sequences for entries named in this document (tags omitted). A change or cut given only in a name is not applied to a line headed by its entry.
UniProt P14672: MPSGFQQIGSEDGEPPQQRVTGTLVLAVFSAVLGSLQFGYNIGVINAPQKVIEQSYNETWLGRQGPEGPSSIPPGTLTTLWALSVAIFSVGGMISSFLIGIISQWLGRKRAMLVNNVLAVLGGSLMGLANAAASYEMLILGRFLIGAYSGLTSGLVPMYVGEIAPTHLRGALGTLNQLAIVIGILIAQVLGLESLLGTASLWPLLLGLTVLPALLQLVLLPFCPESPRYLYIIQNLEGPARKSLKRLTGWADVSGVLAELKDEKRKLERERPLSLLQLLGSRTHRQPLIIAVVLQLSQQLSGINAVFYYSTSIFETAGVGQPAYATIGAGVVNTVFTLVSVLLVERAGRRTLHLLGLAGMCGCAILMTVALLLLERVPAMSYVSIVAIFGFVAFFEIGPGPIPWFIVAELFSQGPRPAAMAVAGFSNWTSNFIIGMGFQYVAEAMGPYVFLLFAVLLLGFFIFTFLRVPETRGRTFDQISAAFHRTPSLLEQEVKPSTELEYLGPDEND
UniProt Q9HC21: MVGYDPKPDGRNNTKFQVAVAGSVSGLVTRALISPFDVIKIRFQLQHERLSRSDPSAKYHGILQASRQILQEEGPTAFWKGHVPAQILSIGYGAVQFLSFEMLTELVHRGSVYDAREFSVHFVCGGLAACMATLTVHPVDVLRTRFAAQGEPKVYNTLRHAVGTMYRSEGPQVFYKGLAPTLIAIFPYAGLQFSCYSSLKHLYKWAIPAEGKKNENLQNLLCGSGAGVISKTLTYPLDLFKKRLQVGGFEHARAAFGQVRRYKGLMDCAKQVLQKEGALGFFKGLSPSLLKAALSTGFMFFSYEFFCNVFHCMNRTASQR
UniProt P30825: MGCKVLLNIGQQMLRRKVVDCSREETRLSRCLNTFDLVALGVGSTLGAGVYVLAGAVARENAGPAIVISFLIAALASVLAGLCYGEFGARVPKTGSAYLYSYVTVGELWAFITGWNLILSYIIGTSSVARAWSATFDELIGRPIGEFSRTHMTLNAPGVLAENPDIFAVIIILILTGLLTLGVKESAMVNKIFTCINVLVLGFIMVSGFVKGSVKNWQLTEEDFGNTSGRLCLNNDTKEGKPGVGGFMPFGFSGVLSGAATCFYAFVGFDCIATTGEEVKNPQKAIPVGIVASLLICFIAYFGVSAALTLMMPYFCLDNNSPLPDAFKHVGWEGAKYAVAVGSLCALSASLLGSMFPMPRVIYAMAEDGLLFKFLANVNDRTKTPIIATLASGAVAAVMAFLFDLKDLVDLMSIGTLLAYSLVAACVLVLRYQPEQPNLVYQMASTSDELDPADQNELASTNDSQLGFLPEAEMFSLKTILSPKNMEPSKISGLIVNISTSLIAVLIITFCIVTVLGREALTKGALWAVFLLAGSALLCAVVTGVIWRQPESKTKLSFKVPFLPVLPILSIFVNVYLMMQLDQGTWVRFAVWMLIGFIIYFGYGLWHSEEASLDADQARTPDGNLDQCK
UniProt O14745: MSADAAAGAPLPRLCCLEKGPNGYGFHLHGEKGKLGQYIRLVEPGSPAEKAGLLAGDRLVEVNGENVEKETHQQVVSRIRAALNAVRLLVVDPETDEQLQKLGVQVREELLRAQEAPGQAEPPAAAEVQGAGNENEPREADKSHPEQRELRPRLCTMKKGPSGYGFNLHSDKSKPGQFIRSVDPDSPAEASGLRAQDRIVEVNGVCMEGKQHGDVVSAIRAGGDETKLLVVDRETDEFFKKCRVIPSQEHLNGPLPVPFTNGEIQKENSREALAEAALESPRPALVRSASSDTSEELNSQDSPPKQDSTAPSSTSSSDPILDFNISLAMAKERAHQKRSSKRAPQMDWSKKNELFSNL
UniProt A1A5C7: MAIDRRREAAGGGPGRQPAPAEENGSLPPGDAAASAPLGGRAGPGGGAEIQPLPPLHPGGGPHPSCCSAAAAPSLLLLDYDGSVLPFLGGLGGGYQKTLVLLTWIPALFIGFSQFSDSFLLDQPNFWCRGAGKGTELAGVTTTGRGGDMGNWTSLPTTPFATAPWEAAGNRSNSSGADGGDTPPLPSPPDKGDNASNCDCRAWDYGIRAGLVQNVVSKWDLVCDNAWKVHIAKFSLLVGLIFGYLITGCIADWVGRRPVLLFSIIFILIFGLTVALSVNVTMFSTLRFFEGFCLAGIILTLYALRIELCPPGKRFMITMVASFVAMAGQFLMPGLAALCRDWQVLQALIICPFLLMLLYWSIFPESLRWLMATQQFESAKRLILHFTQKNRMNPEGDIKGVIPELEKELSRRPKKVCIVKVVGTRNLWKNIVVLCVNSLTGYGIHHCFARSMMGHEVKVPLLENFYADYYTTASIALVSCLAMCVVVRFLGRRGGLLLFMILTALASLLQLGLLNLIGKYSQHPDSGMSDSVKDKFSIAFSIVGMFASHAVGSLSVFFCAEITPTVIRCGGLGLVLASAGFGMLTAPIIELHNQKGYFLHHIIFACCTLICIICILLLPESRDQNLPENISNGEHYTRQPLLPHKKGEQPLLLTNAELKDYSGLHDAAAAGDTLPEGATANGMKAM
UniProt Q9NVC3: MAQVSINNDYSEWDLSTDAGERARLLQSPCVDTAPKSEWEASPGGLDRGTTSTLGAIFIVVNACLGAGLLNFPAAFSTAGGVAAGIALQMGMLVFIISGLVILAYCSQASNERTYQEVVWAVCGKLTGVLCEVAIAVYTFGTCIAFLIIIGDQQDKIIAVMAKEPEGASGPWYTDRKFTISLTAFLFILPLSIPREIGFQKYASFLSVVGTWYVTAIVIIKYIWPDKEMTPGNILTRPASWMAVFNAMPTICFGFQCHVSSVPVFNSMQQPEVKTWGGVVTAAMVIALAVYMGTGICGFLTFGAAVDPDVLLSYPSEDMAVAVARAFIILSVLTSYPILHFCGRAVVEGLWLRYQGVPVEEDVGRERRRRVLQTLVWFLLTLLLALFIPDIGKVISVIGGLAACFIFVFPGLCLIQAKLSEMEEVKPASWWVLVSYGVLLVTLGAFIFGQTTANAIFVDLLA
UniProt P51531, whole entry, looked up: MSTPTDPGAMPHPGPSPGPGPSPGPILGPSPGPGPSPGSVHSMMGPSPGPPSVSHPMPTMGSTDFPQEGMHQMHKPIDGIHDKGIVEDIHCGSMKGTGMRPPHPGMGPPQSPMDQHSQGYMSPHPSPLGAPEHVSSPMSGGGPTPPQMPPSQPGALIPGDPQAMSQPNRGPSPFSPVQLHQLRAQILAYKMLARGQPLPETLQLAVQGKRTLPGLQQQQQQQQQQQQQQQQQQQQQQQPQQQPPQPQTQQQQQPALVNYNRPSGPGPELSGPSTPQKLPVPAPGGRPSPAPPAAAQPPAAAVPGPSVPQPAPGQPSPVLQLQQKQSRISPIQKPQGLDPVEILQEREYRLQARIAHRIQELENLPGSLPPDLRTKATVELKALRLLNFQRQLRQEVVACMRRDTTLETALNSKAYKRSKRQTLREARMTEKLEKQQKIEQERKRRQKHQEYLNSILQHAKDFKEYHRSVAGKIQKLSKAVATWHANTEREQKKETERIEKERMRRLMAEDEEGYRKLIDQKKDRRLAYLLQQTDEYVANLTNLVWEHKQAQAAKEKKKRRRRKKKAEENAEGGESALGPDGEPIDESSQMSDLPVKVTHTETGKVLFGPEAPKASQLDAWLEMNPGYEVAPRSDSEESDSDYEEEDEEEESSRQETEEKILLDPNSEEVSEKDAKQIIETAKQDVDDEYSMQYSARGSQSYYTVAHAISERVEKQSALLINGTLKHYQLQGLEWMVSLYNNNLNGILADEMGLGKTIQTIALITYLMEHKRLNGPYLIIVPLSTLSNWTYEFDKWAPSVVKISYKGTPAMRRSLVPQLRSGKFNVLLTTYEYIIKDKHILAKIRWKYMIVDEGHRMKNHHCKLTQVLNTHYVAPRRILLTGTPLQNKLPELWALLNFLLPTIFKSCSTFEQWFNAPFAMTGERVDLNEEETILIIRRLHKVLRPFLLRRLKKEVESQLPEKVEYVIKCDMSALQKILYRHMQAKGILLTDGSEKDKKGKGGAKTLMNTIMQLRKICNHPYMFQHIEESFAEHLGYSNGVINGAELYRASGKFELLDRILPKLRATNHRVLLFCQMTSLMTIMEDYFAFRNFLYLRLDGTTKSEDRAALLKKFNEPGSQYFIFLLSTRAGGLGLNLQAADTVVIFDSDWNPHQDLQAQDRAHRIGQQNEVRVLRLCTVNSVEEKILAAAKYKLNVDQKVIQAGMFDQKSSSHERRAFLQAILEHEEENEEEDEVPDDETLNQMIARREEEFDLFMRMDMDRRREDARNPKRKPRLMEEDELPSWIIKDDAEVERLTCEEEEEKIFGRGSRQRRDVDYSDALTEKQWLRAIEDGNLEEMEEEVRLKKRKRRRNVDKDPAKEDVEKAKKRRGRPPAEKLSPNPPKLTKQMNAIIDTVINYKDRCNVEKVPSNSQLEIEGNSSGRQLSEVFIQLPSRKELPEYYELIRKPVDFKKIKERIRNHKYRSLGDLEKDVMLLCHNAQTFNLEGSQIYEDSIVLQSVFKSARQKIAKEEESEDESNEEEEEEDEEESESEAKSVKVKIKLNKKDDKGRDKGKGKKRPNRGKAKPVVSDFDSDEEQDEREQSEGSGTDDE
UniProt Q01650: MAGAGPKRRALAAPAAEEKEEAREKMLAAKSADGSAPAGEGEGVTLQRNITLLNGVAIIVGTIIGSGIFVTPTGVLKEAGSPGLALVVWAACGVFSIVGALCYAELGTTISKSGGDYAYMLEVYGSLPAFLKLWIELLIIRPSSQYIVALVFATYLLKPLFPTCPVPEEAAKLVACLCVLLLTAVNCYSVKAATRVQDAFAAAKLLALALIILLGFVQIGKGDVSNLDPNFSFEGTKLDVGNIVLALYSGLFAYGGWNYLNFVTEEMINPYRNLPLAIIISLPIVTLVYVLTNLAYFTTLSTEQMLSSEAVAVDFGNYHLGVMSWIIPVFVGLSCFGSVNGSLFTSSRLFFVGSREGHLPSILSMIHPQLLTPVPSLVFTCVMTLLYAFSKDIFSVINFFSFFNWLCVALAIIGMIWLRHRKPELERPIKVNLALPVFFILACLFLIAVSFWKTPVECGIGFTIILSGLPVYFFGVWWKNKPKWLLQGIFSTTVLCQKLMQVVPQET
UniProt Q92581: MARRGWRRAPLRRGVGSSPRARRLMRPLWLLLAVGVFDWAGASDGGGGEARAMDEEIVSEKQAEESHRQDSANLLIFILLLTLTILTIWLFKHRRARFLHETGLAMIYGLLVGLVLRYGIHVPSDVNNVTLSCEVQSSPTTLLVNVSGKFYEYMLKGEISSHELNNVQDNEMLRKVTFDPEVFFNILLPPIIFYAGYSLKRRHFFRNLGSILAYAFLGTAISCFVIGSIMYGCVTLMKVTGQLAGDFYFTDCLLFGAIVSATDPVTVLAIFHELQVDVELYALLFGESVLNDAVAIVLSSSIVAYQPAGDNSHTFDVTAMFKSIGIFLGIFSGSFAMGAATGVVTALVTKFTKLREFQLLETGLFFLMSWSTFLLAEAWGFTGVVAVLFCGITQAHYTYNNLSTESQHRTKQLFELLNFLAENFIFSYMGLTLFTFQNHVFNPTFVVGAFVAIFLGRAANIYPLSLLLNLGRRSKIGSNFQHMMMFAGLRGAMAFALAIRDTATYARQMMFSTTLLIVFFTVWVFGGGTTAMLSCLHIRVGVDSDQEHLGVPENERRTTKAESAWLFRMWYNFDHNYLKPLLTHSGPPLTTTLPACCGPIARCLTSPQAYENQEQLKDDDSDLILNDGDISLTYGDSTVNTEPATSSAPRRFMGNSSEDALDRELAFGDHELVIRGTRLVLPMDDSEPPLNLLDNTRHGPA
UniProt P19634, whole entry, looked up: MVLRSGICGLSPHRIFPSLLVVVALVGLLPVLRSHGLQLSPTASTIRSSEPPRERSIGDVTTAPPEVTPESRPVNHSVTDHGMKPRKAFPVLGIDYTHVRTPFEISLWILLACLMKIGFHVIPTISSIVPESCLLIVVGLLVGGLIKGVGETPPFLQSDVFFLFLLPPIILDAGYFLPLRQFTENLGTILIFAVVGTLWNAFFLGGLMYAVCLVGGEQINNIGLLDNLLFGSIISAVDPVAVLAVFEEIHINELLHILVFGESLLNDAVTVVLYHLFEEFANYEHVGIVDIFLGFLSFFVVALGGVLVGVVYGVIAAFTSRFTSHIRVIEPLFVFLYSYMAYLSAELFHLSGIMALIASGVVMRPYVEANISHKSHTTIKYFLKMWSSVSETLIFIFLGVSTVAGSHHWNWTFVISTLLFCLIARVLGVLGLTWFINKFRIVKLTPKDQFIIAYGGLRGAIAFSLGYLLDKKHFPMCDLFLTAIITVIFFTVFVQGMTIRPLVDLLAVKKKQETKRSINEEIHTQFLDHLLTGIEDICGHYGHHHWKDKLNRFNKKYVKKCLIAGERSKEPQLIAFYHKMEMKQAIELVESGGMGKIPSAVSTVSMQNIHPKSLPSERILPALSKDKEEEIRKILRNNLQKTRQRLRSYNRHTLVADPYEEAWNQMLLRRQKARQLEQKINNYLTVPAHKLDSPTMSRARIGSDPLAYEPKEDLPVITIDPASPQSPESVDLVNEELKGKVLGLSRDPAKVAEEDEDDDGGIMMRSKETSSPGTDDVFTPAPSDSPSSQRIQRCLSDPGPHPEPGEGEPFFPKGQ

Tests used:
Experiment in all cases: log2 fold change, soluble protein after heating vs DMSO (PISA); higher = thermal stabilisation; K562 lysate, 10 uM; active = over 0.2 and 3.5 SD of the protein, either way, in both replicates (recomputed)
lapatinib = compound: CS(=O)(=O)CCNCc1ccc(-c2ccc3ncnc(Nc4ccc(OCc5cccc(F)c5)c(Cl)c4)c3c2)o1 [lapatinib]
Procedure, shortened: (§1)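 A 30 min treatment with 10 μM compound was applied to crude K562 extract at 1 mg/mL protein in PBS pH 7.4 with 1 mM MgCl2. Heating for 3 min spanned 48°C-58°C, after which aliquots were pooled, adjusted to 0.5% NP-40 at 4°C and spun at 21,000xg for 90 min. TMTpro 16plex LC-MS/MS of the supernatant, with channel sums equalised, gave values recorded as log-two fold change in thermal stability against solvent controls, from duplicates.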

pictilisib = compound: CS(=O)(=O)N1CCN(Cc2cc3nc(-c4cccc5[nH]ncc45)nc(N4CCOCC4)c3s2)CC1 [pictilisib]
Procedure, shortened: as §1

crizotinib = compound: C[C@@H](Oc1cc(-c2cnn(C3CCNCC3)c2)cnc1N)c1c(Cl)ccc(F)c1Cl [crizotinib]
Procedure, shortened: as §1

[1] = compound: C[C@H](C1=CC=C(C=C1)C(=O)NC2=C3C=CNC3=NC=C2)N
Procedure, shortened: as §1

duvelisib = compound: C[C@H](Nc1ncnc2nc[nH]c12)c1cc2cccc(Cl)c2c(=O)n1-c1ccccc1 [duvelisib]
Procedure, shortened: as §1

gandotinib = compound: Cc1cc(Nc2cc(CN3CCOCC3)c3nc(C)c(Cc4ccc(Cl)cc4F)n3n2)n[nH]1 [gandotinib]
Procedure, shortened: as §1

tozasertib = compound: Cc1cc(Nc2cc(N3CCN(C)CC3)nc(Sc3ccc(NC(=O)C4CC4)cc3)n2)n[nH]1 [tozasertib]
Procedure, shortened: as §1

doramapimod = compound: Cc1ccc(-n2nc(C(C)(C)C)cc2NC(=O)Nc2ccc(OCCN3CCOCC3)c3ccccc23)cc1 [doramapimod]
Procedure, shortened: as §1

bafetinib = compound: Cc1ccc(NC(=O)c2ccc(CN3CC[C@H](N(C)C)C3)c(C(F)(F)F)c2)cc1Nc1nccc(-c2cncnc2)n1 [bafetinib]
Procedure, shortened: as §1

[2] = compound: Cc1cccc(CC(=O)N2CCc3c2ccc(-c2cn(C)c4ncnc(N)c24)c3F)n1
Procedure, shortened: as §1

Target	log2 fold change (lapatinib)	log2 fold change (pictilisib)	log2 fold change (crizotinib)	log2 fold change [1]	log2 fold change (duvelisib)	log2 fold change (gandotinib)	log2 fold change (tozasertib)	log2 fold change (doramapimod)	log2 fold change (bafetinib)	log2 fold change [2]
SLC2A4 (UniProt P14672)	inactive: 0.041	inactive: -0.044	inactive: 0.082	inactive: -0.007	inactive: -0.034	inactive: 0.031	inactive: -0.106	inactive: -0.02	inactive: 0.079	inactive: 0.064
SLC30A7 (UniProt Q8NEW0)	inactive: -0.047	inactive: 0.008	inactive: 0.003	inactive: -0.059	inactive: 0.108	inactive: 0.171	inactive: 0.092	inactive: -0.026	inactive: -0.109	inactive: 0.059
SLC25A51 (UniProt Q9H1U9)	inactive: 0.102	inactive: 0.006	inactive: -0.013	inactive: -0.007	inactive: 0.034	inactive: -0.047	inactive: -0.069	inactive: 0.052	inactive: -0.025	inactive: 0.108
SLC25A19 (UniProt Q9HC21)	inactive: 0.024	inactive: 0.017	inactive: 0.014	inactive: 0.009	inactive: -0.016	inactive: -0.005	inactive: 0.004	inactive: -0.012	inactive: -0.005	inactive: 0.044
SLIRP (UniProt Q9GZT3)	inactive: 0.028	inactive: 0.008	inactive: -0.013	inactive: -0.138	inactive: -0.022	inactive: 0.06	inactive: -0.008	inactive: 0.012	inactive: 0.025	inactive: 0.043
SLC7A1 (UniProt P30825)	inactive: 0.008	inactive: -0.01	inactive: 0.024	inactive: 0.025	inactive: 0.019	inactive: -0.031	inactive: 0.004	inactive: 0.017	inactive: -0.033	inactive: -0.031
SLC9A3R1 (UniProt O14745)	inactive: -0.023	inactive: 0	inactive: 0.023	inactive: -0.03	inactive: 0.015	inactive: 0.076	inactive: 0	inactive: -0.018	inactive: -0.009	inactive: -0.002
SLC22A23 (UniProt A1A5C7)	inactive: -0.13	inactive: -0.011	inactive: 0.013	inactive: -0.21	inactive: 0.075	inactive: 0.06	inactive: -0.011	inactive: -0.051	inactive: -0.147	inactive: 0
SMAD9 (UniProt O15198)	inactive: -0.056	inactive: -0.036	inactive: -0.027	inactive: -0.047	inactive: 0.091	inactive: 0.077	inactive: 0.091	inactive: 0.024	inactive: 0.014	inactive: -0.019
SLC38A7 (UniProt Q9NVC3)	inactive: 0.105	inactive: -0.017	inactive: 0.127	inactive: -0.004	inactive: -0.087	inactive: -0.01	inactive: -0.03	inactive: -0.305	inactive: -0.058	inactive: -0.05
SLC4A2 (UniProt P04920)	inactive: 0.008	inactive: -0.011	inactive: 0.006	inactive: -0.037	inactive: -0.052	inactive: -0.013	inactive: -0.003	inactive: 0.056	inactive: -0.028	inactive: 0.037
SMARCA2 (UniProt P51531)	inactive: -0.01	inactive: -0.031	inactive: -0.022	inactive: 0.101	inactive: -0.024	inactive: -0.039	inactive: -0.003	inactive: -0.033	inactive: -0.044	inactive: -0.032
SLC7A5 (UniProt Q01650)	inactive: -0.004	inactive: 0.026	inactive: -0.069	active: -0.308	inactive: 0.051	active: 0.201	inactive: -0.012	inactive: 0.019	inactive: 0.046	inactive: 0.129
SLC9A6 isoform 2 (UniProt Q92581)	inactive: 0.003	inactive: -0.048	inactive: 0.055	inactive: 0.1	inactive: -0.009	inactive: -0.183	inactive: 0.036	inactive: 0.089	inactive: 0.148	inactive: -0.156
SLC9A1 (UniProt P19634)	inactive: -0.065	inactive: -0.026	inactive: 0.024	inactive: 0.019	inactive: 0.028	inactive: 0.069	inactive: 0.069	inactive: -0.001	inactive: -0.054	inactive: 0.089

Part of the list above, reformatted:
Target | log2 fold change (lapatinib) | log2 fold change (pictilisib) | log2 fold change (crizotinib) | log2 fold change [1] | log2 fold change (duvelisib) | log2 fold change (gandotinib) | log2 fold change (tozasertib) | log2 fold change (doramapimod) | log2 fold change (bafetinib) | log2 fold change [2]
SMAD9 (UniProt O15198) | inactive: -0.056 | inactive: -0.036 | inactive: -0.027 | inactive: -0.047 | inactive: 0.091 | inactive: 0.077 | inactive: 0.091 | inactive: 0.024 | inactive: 0.014 | inactive: -0.019
SLC38A7 (UniProt Q9NVC3) | inactive: 0.105 | inactive: -0.017 | inactive: 0.127 | inactive: -0.004 | inactive: -0.087 | inactive: -0.01 | inactive: -0.03 | inactive: -0.305 | inactive: -0.058 | inactive: -0.05
